Source: PubChem BioAssay AID2685 (National Center for Advancing Translational Sciences (NCATS), 2010)
This is one part of the list. The main result of the screen is listed elsewhere. These columns were measured beside it and carry no call. The list favours compounds with an active or inconclusive main result. Potencies come from curve fits of mixed quality, noted in brackets.

Assay: qHTS Assay for Lipid Storage Modulators in Drosophila S3 Cells;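 on cell number change: cells counted by Cell Tracker Red CMTPX staining in the red channel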
Settings: BODIPY lipid droplet fluorescence, 18-24 h; for cell number change: measured here: cell count max response, cells fed with added oleic acid
Method in brief: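 Laser-scanning cytometry quantifies lipid droplet accumulation (500–530 nm total intensity; droplet/cell object ratio) in oleic acid-fed (400 uM added) Drosophila S3 cells treated with a concentration series. 20 uM Triacsin C defined 100% inhibition.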

[1] = measured here: lipid fluorescence (Fed channel) AC50, cells fed with added oleic acid
[2] = measured here: cell number channel AC50, cells fed with added oleic acid

Row | SMILES | cell number change | AC50 [1] | AC50 [2]
1 | CN1C(=O)/C(=C\c2ccccc2)Sc2ccc(C(=O)N3CCN(c4ccccn4)CC3)cc21 | -3.45% | – | –
2 | CC(=O)N[C@@H](Cc1c[nH]c2ccccc12)C(=O)NCCc1ccc(S(N)(=O)=O)cc1 | – | 0.58 µM [falling, single point] | –
3 | COCCCNC(=O)c1ccc(CS(=O)(=O)c2cccc(C(F)(F)F)c2)o1 | 24.6% | 7.31 µM [rising, partial curve, poor fit] | –
4 | Cc1ccc(SC[C@H](C)CN2CC[C@H](C)CCC2=O)cc1 | -27.8% | – | –
5 | CCOC(=O)C1=C(OCc2ccc(Cl)cc2)C2C=C(C)C=CC2N=C1 (centres undefined) | -9% | 29.1 µM [rising, single point] | 1.3 µM [rising, partial curve, poor fit]
6 | CCN1CCN(c2nc3c(c(=O)[nH]c(=O)n3C)n2CCCSc2ncccn2)CC1 | -9.36% | 6.51 µM [rising, single point] | 2.59 µM [rising, partial curve]
7 | Cc1sc2nc(C(C)C)nc(SCC(=O)NC3CC3)c2c1C | -20% | 29.1 µM [falling, single point] | –
8 | COc1ccccc1NC(=O)c1cc2cc(Br)ccc2oc1=N | 253% | – | 29.1 µM [rising, single point]
9 | Cn1c(=O)[nH]c(=O)c2c1nc(N1CCCCC1)n2CCSc1nc2ccccc2o1 | 27.2% | 0.092 µM [falling, full curve, poor fit] | –
10 | COC(=O)c1ccc(Oc2nc(Nc3ccc(C)c(C)c3)nc(N(C)C)n2)cc1 | -27.7% | – | –
11 | COc1ccc(N=C2SC(CC(=O)Nc3ccc(F)cc3)C(=O)N2Cc2ccco2)cc1 (centres undefined) | 0.994% | – | –
12 | Cc1ccc2c(C)c(C(=O)N3CCC(O)(c4ccccc4)CC3)oc2c1C | 3.89% | 6.51 µM [rising, single point] | –
13 | Fc1ccccc1-c1nc(-c2cnccc2C(F)(F)F)no1 | -43.4% | 29.1 µM [falling, single point] | 29.1 µM [falling, single point]
14 | O=C(Nc1ccc2oc(-c3ccc(F)cc3)nc2c1)c1ccccc1F | 23.8% | 0.0731 µM [rising, full curve] | –
15 | Cc1occc1C(=O)Nc1cccnc1 | – | – | 5.17 µM [rising, partial curve]
16 | COc1cccc(/C=C2\SC(=S)N(CCCC(=O)N(CCO)c3ccccc3)C2=O)c1 | 7.8% | 29.1 µM [falling, single point] | –
17 | CCOC(=O)c1ccc(CNC(=O)c2cc(C(C)(C)C)oc2C)o1 | -13.4% | 10.3 µM [rising, partial curve] | –
18 | CC(C)CCSc1nc2c(c(=O)[nH]c(=O)n2C)n1CCc1ccccc1 | -32.8% | 2.91 µM [falling, full curve, poor fit] | 2.59 µM [falling, full curve]

An excerpt of these results, in markdown:

| Row | SMILES | cell number change | AC50 [1] | AC50 [2] |
| --- | --- | --- | --- | --- |
| 4 | Cc1ccc(SC[C@H](C)CN2CC[C@H](C)CCC2=O)cc1 | -27.8% | – | – |
| 5 | CCOC(=O)C1=C(OCc2ccc(Cl)cc2)C2C=C(C)C=CC2N=C1 (centres undefined) | -9% | 29.1 µM [rising, single point] | 1.3 µM [rising, partial curve, poor fit] |

(next part)

Row | SMILES | cell number change | AC50 [1] | AC50 [2]
19 | O[C@@H]1[C@@H](O)C=C2CCN3Cc4cc5c(cc4[C@H]1C23)OCO5 (some centres undefined) | -6.04% | 1.3 µM [falling, full curve] | 1.64 µM [falling, partial curve]
20 | COCCCC1CCN(C(=O)c2cc(COc3cc(C)ccc3C)on2)CC1 | -6.27% | 29.1 µM [falling, partial curve, poor fit] | –
21 | Cc1ccc(F)cc1CNC(=O)C1CCC(=O)N(C2CC2)C1 (centres undefined) | 41.5% | – | 29.1 µM [rising, single point]
22 | CCCS(=O)(=O)N1CCCC(C(=O)NCCN2CCC(Cc3ccccc3)CC2)C1 (centres undefined) | 38.8% | 6.51 µM [falling, single point] | 32.6 µM [rising, single point]
23 | Cc1ccccc1-n1c(-c2ccc(Cl)cc2)cnc1SCC(=O)NC1CCS(=O)(=O)C1 (centres undefined) | -13.7% | 20.6 µM [falling, partial curve, poor fit] | –
24 | Cn1cc(CNC(=O)c2cc(COc3ccc4c(c3)CCCC4)on2)cn1 | -0.99% | 6.51 µM [rising, single point] | –
25 | Cc1cc(Cl)ccc1OCC(=O)NNC(=O)C1CCN(c2ncnc3sc(C)c(C)c23)CC1 | 28.1% | 0.00461 µM [falling, full curve, poor fit] | –
26 | Cc1ccc(OCC(=O)N/N=C\c2cn(Cc3ccccc3)c3ccccc23)cc1C | 4.29% | 2.06 µM [rising, full curve] | –
27 | COc1cc(OC)cc(-c2c(-c3cccs3)c3cc(-c4ccc(OC)nc4)ccc3n2C)c1 | -9.77% | 1.16 µM [falling, single point] | 1.16 µM [falling, single point]
28 | Cc1cc(NC(=O)C2C3C=CC(C3)C2C(=O)O)no1 (centres undefined) | 6.93% | 29.1 µM [falling, single point] | –
29 | CCc1nnc(NC(=O)CSc2nc(N)c(NC(=O)c3ccc(OC)cc3)c(=O)[nH]2)s1 | 13.9% | 29.1 µM [rising, single point] | 0.146 µM [rising, full curve, poor fit]
30 | COc1ccccc1Oc1ccc2c(c1)C(=O)N(CC(=O)O)C2=O | 26.5% | 14.6 µM [rising, partial curve, poor fit] | –
31 | COc1ccc(C2=CC(c3sccc3C)n3nnnc3N2)cc1 (centres undefined) | -30.2% | – | 0.146 µM [falling, full curve, poor fit]
32 | O=S(=O)(Oc1ccccc1C(=S)N1CCOCC1)c1ccc(Cl)cc1 | -37% | 0.461 µM [falling, full curve] | 0.651 µM [falling, full curve]
33 | COc1cc(C(=O)O)c2ccccc2n1 | 4.7% | 29.1 µM [rising, single point] | –
34 | COc1ccc(C=O)c(OC)c1 | – | – | 0.00461 µM [rising, full curve, poor fit]
35 | O=C(CN1C(=O)S/C(=C\c2cccs2)C1=O)Nc1ccc(O)cc1C(=O)O | -1.42% | 0.0731 µM [falling, full curve, poor fit] | 1.46 µM [falling, partial curve]
36 | CN(CCO)C(=O)C(c1ccccc1)c1ccccc1 | -6.51% | – | –
